Assay results as given in patent EP3037106A1, “TXA2 inhibitor as stimulator or inducer of MHC Class I cross-presentation” (INSTITUT PASTEUR, priority 2014, dated 2016).
Entries after “also recorded” stand apart in the source; their conditions may differ. At least one structure is not confirmed: it was looked up by name or label, or the drawing left a doubt.

Test system: bone marrow derived macrophages (BMMs)
Assay: FRET assay for antigen cytosolic transfer (CCF4-AM/β-lactamase) in bone marrow derived macrophages
Type: cell-based, C57/black-6 mice
Procedure: Primary Cells and Mice - Bone marrow derived dendritic cells and macrophages were isolated by flushing femur and tibia from 6 to 9 weeks old C57/black-6 mice with ROSWELL PARK MEMORIAL INSTITUTE-1640 (RPMI-1640) supplemented with GLUTAMAX using 5 ml syringes (BD PLASTIPAK) and 0.5 x 16 mm needles 25G 5/8 (BD MicroLance). After centrifugation at 1000 rpm for 4 minutes, cells were resuspended in 1.66% NH4Cl, and put at 4°C for 10 minutes. After centrifugation at 1,000 rpm for 4 minutes, cells were quantified and incubated at 37°C/5% CO2 for 7 to 10 days in RPMI-1640 with GLUTAMAX containing 10% v/v fetal calf serum (GIBCO) and 50µg/ml penicillin/streptomycin (GIBCO). […]
Fluorescence microscopy and image analysis - All acquisitions were performed on a NIKON TI WIDEFIELD microscope with a 20X N-Plan Objective. […] Briefly, the 450 and 535 nm emission signals were scored automatically for each individual cells on a large set of images using METAMORPH. The quantitative parameters were then exported as an EXCEL file in which the ratio between the intensity of the 450 and 535 nm emission signals were presented as an average of the ratio in the whole cell population. After algorithm processing, mean ratios 450/535 nm from different replicates were obtained and pooled together as an average and the status of cytosolic transfer was assessed. […]

SMILES | transfer of β-lactamase to the cytosol (450/535 nm ratio, CCF4 cleavage) (compound 15 minutes at 37°C (AACOCF3 0.25mM, baïcalein 1mM, indomethacin 1mM, sulindac sulphide 1mM, ICI192605 1mM, arachidonic acid 80µM), then 1 mg/ml β-lactamase 90 minutes at 37°C) | effect on indomethacin induced transfer of β-lactamase to the cytosol (indomethacin 1mM 15 minutes, then β-lactamase with wortmannin 0.5µM, radicicol 25µM or Pyr41 10µM for 90 minutes at 37°C)
CC1=C(CC(=O)O)c2cc(F)ccc2/C1=C\c1ccc([S+](C)[O-])cc1 (centres unmarked) [Sulindac, 5-fluoro-2-methyl-1Z-[[4-(methylsulfinyl)phenyl]methylene]-1H-indene-3-acetic acid] | led to a robust transfer of β-lactamase to the cytosol; also recorded: comparable to the one observed using indomethacin; also recorded: triggers the transfer of β-lactamase to the cytosol | 
COC[C@H]1OC(=O)c2coc3c2[C@@]1(C)C1=C(C3=O)[C@@H]2CCC(=O)[C@@]2(C)C[C@H]1OC(C)=O [wortmannin] |  | restrained
